Reference: patent publication US11974551B2, “L-serine compositions, methods and uses for treating neurodegenerative diseases and disorders” (priority 2011, dated 2024)

System: MRC-5 cells
Test: Incorporation of 3H-BMAA radiolabel into cell proteins (TCA precipitation, liquid scintillation counting)
Type: cell-based, human
Conditions: 3H-BMAA 31.25 nM
Procedure: MRC-5 cells were incubated with ^3H-BMAA (31.25 nM) in HBSS containing 10% FCS. After 2, 4, and 16 hours, cells were washed three times in phosphate buffered saline and lysed by freeze-thawing in Triton X-100. The protein concentration in the lysate was determined using the bicinchoninic acid assay (BCA) (Smith, et al., Anal Biochem 150, 76-85 (1985)) (and radiolabel in the cell lysate quantified by liquid scintillation counting (LSC). Cell proteins were then isolated by trichloroacetic acid (TCA) (5%) precipitation washed three times in TCA (5%) and dissolved in formic acid. […]
To examine the ability of individual amino acids to reduce incorporation or radiolabel into proteins, MRC-5 cells were incubated with ^3H-BMAA (31.25 nM) for 16 hours in the presence of individual amino acids (250 μM) and the radiolabel present in the cell proteins assessed as before. […] Incorporation of radiolabel was determined relative to cells incubated in medium containing no serine. MRC-5 cells were then incubated with ^3H-BMAA (31.25 nM) for 16 hours in HBSS alone, HBSS containing all 20 protein amino acids (400 μM) or 19 protein amino acids except L-serine and the amount of radiolabel in cell protein assessed as before.

CNC[C@H](N)C(=O)O [^3H-BMAA]
radiolabel in cell lysates (uptake of radiolabel by cells) (HBSS with 10% FCS (amino acid depleted), 2, 4 and 16 hours): time-dependent increase | radiolabel associated with cell proteins (HBSS with 10% FCS, 2, 4 and 16 hours): a proportion of which was associated with cell proteins
